The results in this text go back to PubChem BioAssay AID493014 (National Center for Advancing Translational Sciences (NCATS), 2011).

This is one part of the list. The main result of the screen is listed elsewhere. These columns were measured beside it and carry no call. The list favours compounds with an active or inconclusive main result. Words in brackets tell the shape of the fitted curve; partial curves, single points and poor fits give uncertain potencies.

As a reminder, the AC50 is the concentration at which the activity in the assay is half-maximal.

A short description of this experiment: qHTS Assay to Find Inhibitors of Chronic Active B-Cell Receptor Signaling. The note with it: ABC-DLBCL IkBa-CBG/CBR reporter, luminescence ratio (green luciferase fused to IkBa over red control in TMD8 lymphoma cells), 4 h. A digest of the protocol:
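Cell line TMD8 (human ABC DLBCL), stably expressing tet-inducible CBG68-IkBa fusion and CBR; IMDM/0.5% FBS; cpd up to 46 uM; dox induction, 4 h, 37C/5% CO2; dual luminescence; green/red ratio; MG132 control.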
Background: Quantitative high-throughput screening tests each substance at several concentrations.

Where [1] appears, read: measured here: CBR red luminescence, cell number.
Where [2] appears, read: measured here: IkBa-CBG green luminescence.

For the compound `CCOC(=O)Cn1c(=O)n(Cc2ccco2)c(=O)c2ccc(C(=O)NC3CCCC3)cc21`, the AC50 was 29.1 µM [falling, single point] under setting [1] and 0.461 µM [rising, full curve] under setting [2]. Consider `CCN(CC(=O)Nc1ccccc1C(F)(F)F)C(=O)c1oc2ccc(OC)cc2c1C`, for which the AC50 under setting [1] was 29.1 µM [rising, single point]. On the same count and under the same terms, the same measure for `CCN(CC)CCCNc1nc2ccccc2c2nc(-c3ccncc3)nn12`: 15.8 µM [falling, single point]; for `O=C(NC(=O)c1ccccc1Cl)C(=O)Nc1ccc(Cl)cc1`: 0.398 µM [falling, full curve, poor fit].

On to `N#C/C(=C(/O)c1ccc(Cl)cc1)c1nc2ccccc2[nH]1`, for which, under setting [1], the AC50 was 0.891 µM [falling, full curve]. The same measure, in the same setting: the result for `COCc1cc(C)nc(SCC(=O)Oc2ccccc2)c1C#N` reads 3.55 µM [rising, full curve]; that for `CN1CCN(S(=O)(=O)c2cccc(C(=O)N(c3ccccn3)C3CCCCC3)c2)CC1`, 22.4 µM [falling, single point].

On to `CCOC(=O)c1cnc2ccc(OCC)cc2c1NCc1ccccc1`, for which the AC50 under setting [1] was 25.9 µM [falling, single point]. On the same count and under the same terms, the result for `COc1cc2c(cc1OC)C(C)N(C(=O)c1c(-c3ccccc3)noc1C)CC2` (stereo not drawn) reads 35.5 µM [falling, single point]; that for `FC(F)(F)c1cccc(NC(=S)NNC(=S)Nc2ccc(Cl)cc2)c1`, 2.51 µM [rising, partial curve, poor fit]. On the same count and under the same terms, the result for `Cc1ccc(CNc2nc3ccccc3n3cnnc23)cc1` reads 0.13 µM [rising, full curve, poor fit]. Still for that read-out and setting: the result for `CCCCNC(=S)N(C)/N=C/c1ccccc1C(=O)O` reads 0.58 µM [falling, full curve, poor fit]. As to `CN(C)S(=O)(=O)c1ccc(C(=O)NCCOc2ccccc2)cc1`, the concentration at half-maximal activity (AC50) under setting [1] is 16.4 µM [rising, partial curve, poor fit].

Consider `CC1(C)Cc2c(c(N3CCOCC3)nc3sc(-c4ccc(C(=O)O)o4)c(N)c23)CO1`, for which, under setting [1], the AC50 is 29.1 µM [falling, partial curve, poor fit]. Same read-out and setting: the result for `COc1ccc(Cc2nc(-c3cccs3)no2)cc1` reads 3.98 µM [rising, full curve, poor fit]; that for `O=C(COc1ccccc1[N+](=O)[O-])N1CCC(Cc2ccccc2)CC1`, 10 µM [falling, partial curve]. The same measure, in the same setting: the same measure for `CCC(C)(C)c1nnc(NC(=O)c2cccc([N+](=O)[O-])c2)s1`: 2.31 µM [rising, partial curve]; for `Cc1ccccc1NC(=O)C1Cc2ccccc2CN1C(=O)c1ccco1` (stereo not drawn): 1.58 µM [falling, partial curve, poor fit]; for `O=C(COC(=O)CNC(=O)c1ccccc1)Nc1ccc(Cl)cn1`: 6.51 µM [rising, single point].

On to `CCOc1ccccc1C(=O)Nc1cccc(-c2ccc(N3CCOCC3)nn2)c1`, for which, under setting [1], the half-maximal activity concentration (AC50) was 18.4 µM [falling, single point].

Regarding `CC(C)OCC(O)CSc1ccccn1` (stereo not drawn), the AC50 under setting [1] is 17.8 µM [rising, single point]. Same read-out and setting: the result for `Cn1c(O)c(N=Nc2nc(-c3ccccc3)cs2)c2ccccc21` reads 0.326 µM [falling, full curve]. On the same count and under the same terms, the result for `CC1=NN(c2ccccc2)C(=O)C1C=Nc1ccccc1O` (stereo not drawn) reads 1.41 µM [falling, full curve, poor fit]; that for `Cc1ccc(NC(=O)CNC(c2ccccc2)c2ccccc2)c(F)c1`, 2.91 µM [rising, single point]; that for `COC(=O)c1ccccc1NC(=O)NCc1ccccn1`, 6.51 µM [falling, partial curve, poor fit]. Turning to `COc1ccc2nc(NC(=O)c3cccc(S(=O)(=O)N4CCOCC4)c3)sc2c1`, the AC50 under setting [1] is 3.98 µM [falling, partial curve, poor fit]. Take `CCc1ccccc1NC(=O)C1COc2ccccc2O1` (stereo not drawn): under setting [1], the AC50 is 10 µM [rising, partial curve, poor fit]. Regarding `Cc1cccc(-c2noc(-c3ccoc3C)n2)c1`, the AC50 under setting [1] was 35.5 µM [rising, single point]. On the same count and under the same terms, the result for `Cc1cc(F)ccc1S(=O)(=O)Nc1ccc(C(=O)N(C)Cc2ccco2)cc1` reads 25.9 µM [rising, single point]; that for `CCN1CCCc2cc(CN(CCN3CCOCC3)C(=O)Nc3ccc(C)c(C)c3)ccc21`, 20.6 µM [falling, single point]. Still for that read-out and setting: the same measure for `Cc1ccccc1-c1nnc(SCCOc2ccc3c(C)cc(=O)oc3c2)o1`: 29.1 µM [rising, single point]. The same measure, in the same setting: the result for `CSCc1ccc(C(=O)Nc2cccc(C)c2C)cc1` reads 1.46 µM [falling, full curve].

As for `CCOc1ccccc1N1CCN(C(=O)c2cc3ccccc3cc2OC)CC1`, the AC50 reads like this: under setting [1], 25.9 µM [rising, single point]; under setting [2], 18.4 µM [falling, single point]. On to `O=C1C(Cl)=C(Nc2ccc(O)cc2)C(=O)c2ccccc21`, for which the AC50 is, setting by setting: under setting [1], 35.5 µM [falling, single point]; under setting [2], 11.2 µM [rising, partial curve, poor fit]. For the compound `COc1ccc(C(C)=O)cc1CSc1nc2ccccc2c(=O)n1-c1ccccc1C`, the AC50 under setting [2] is 5.17 µM [falling, partial curve, poor fit].

Regarding `Cc1ccc(OCc2nc(-c3ccc(-n4cccc4)cc3)no2)cc1C`, the AC50 under setting [1] was 2.31 µM [falling, single point]. Still for that read-out and setting: the result for `COc1ccc(-c2cc(C(=O)Nc3ccccc3SC)no2)cc1OC` reads 0.355 µM [falling, partial curve, poor fit]. Still for that read-out and setting: the result for `Nc1ccc(C(=O)N/N=C\c2cc(N=Nc3cccc4ccccc34)ccc2O)cc1` reads 11.2 µM [falling, partial curve, poor fit]. On the same count and under the same terms, the result for `COc1cc(/C=C2/CCc3ccccc3C2=O)cc(OC)c1OC` reads 29.1 µM [falling, single point]. Take `CCC(=O)Nc1cccc(-c2ccc(N3CCCCC3)nn2)c1`: under setting [1], the AC50 is 12.6 µM [falling, single point].

Regarding `COc1ccc(N(CC(=O)N2CCc3ccccc32)S(=O)(=O)c2c(C)nn(C)c2C)cc1`, the AC50 under setting [1] was 3.26 µM [falling, partial curve, poor fit].

Turning to `Cc1ccc2c(c1)nc(NCCCO)n2C`, the AC50 under setting [1] is 32.6 µM [rising, single point]. On to `O=C(Nc1ccc(Cl)cc1)N(Cc1cccs1)Cc1cccs1`, for which, under setting [1], the AC50 was 2.31 µM [rising, partial curve, poor fit]. Same read-out and setting: the same measure for `Cc1ccccc1C(=O)Nn1c(C)ccc1C`: 12.6 µM [falling, partial curve, poor fit]. As to `c1ccc(CN2CCC(Nc3nc(-c4cccnc4)nc4ccccc34)CC2)cc1`, the AC50 under setting [1] is 25.1 µM [falling, single point]. In the case of `O=C(NCc1ccccn1)c1cn(Cc2ccccc2)nn1`, the AC50 under setting [1] is 17.8 µM [rising, partial curve, poor fit].

With `Cn1nnc2c(NCc3c(F)cccc3F)ncnc21`, the AC50 under setting [1] is 6.31 µM [falling, full curve, poor fit]. In the case of `CN1CCN(C(c2ccc(F)cc2)c2nnnn2Cc2cccs2)CC1` (stereo not drawn), the AC50 under setting [1] is 32.6 µM [falling, single point].

For `O=C1/C(=C/c2ccc(F)cc2)CCC1C1CCCC1` (stereo not drawn), the concentration at half-maximal activity (AC50) under setting [1] is 2.06 µM [rising, partial curve]. On the same count and under the same terms, the same measure for `C#CC(=O)N(c1ccc(OC)cc1OC)C(C(=O)NC1CCCC1)c1cccs1` (stereo not drawn): 35.5 µM [falling, single point]; for `O=C(Nc1ccc(-c2csc(Nc3ccc(Cl)cc3)n2)cc1)c1cccc(C(F)(F)F)c1`: 35.5 µM [rising, single point]; for `Cc1ccccc1/C=C/C(=O)c1ccc([N+](=O)[O-])o1`: 3.66 µM [falling, partial curve, poor fit]. Same read-out and setting: the same measure for `O=C(O)C1CC(=O)N(C2CCCCC2)C1c1ccccc1` (stereo not drawn): 0.92 µM [falling, full curve, poor fit]; for `Cc1cccc(/C=N/NC(=O)CNc2cccc3ccccc23)n1`: 13 µM [falling, partial curve]; for `Cc1cc(Cl)c2oc(C(=O)N(C)C3CCOC3)c(C)c2c1` (stereo not drawn): 12.6 µM [rising, partial curve]. Still for that read-out and setting: the result for `COc1ccc(NC(=O)COC(=O)CCCN2C(=O)c3ccccc3C2=O)cc1Cl` reads 32.6 µM [rising, single point]; that for `C/C(=N\NC(=O)c1cccnc1)c1cc2ccccc2o1`, 11.2 µM [falling, partial curve, poor fit].

With `CCn1c2ccccc2c2cc(NC(=O)COC(=O)c3cccc(S(=O)(=O)NC)c3)ccc21`, the AC50 under setting [1] was 23.1 µM [rising, partial curve, poor fit].

Regarding `CC(=O)Nc1ccc(S(=O)(=O)NC(CC(=O)NC2CCCCC2C)C(C)C)cc1` (stereo not drawn), the AC50 under setting [1] was 23.1 µM [rising, single point]. On the same count and under the same terms, the result for `O=C(Nc1ccncc1)c1c(Cl)cccc1Cl` reads 25.1 µM [falling, single point]. In the case of `CCOC(=O)C(CC)Sc1nc2c(c(=O)[nH]c(=O)n2C)n1C/C=C(/C)Cl` (stereo not drawn), the AC50 is, setting by setting: under setting [1], 4.11 µM [rising, single point]; under setting [2], 4.61 µM [rising, partial curve, poor fit].

For the compound `COc1cccc(/C=N/NC(=O)c2ccc(-n3cnnn3)cc2)c1`, the AC50 under setting [1] is 16.4 µM [falling, single point]. Turning to `O=c1ccc2cc(S(=O)(=O)N3CCN(c4ccc(Cl)cc4)CC3)ccc2o1`, the half-maximal activity concentration (AC50) under setting [1] was 6.31 µM [rising, single point]. Same read-out and setting: the result for `N#CC1=C(N)SC(N)=C(C#N)C1C1C=CCCC1` (stereo not drawn) reads 29.1 µM [falling, partial curve, poor fit].
